# Experimental data: patent publication US20090159876A1, “ORGANIC SEMICONDUCTOR MATERIAL AND ORGANIC FIELD EFFECT TRANSISTOR” (MITSUBISHI CHEMICAL CORPORATION, priority 2005, published 2009)
# Assay: Electrical characteristics of organic FET (semiconductor parameter analyzer)
# Conditions: for On-Off Ratio: applied voltage Vd of −30 V; for Vt (threshold voltage) / Mobility: nitrogen atmosphere; for Mobility: spin-coated semiconductor layer, from saturation current
Compound,On-Off Ratio,Vt (threshold voltage) [V],Mobility,On-Off Ratio (listed as oligothiophene A)
CCCCCCc1ccc(-c2ccc(-c3ccc(-c4ccc(-c5sc(-c6ccc(CCCCCC)s6)cc5-c5ccc(CC)cc5)s4)s3)s2)s1 [Example 5],2.4 × 10^1,39,1.3 × 10^−2 cm^2/Vs,
CCCCCCc1ccc(-c2ccc(-c3ccc(-c4ccc(-c5ccc(-c6sc(-c7cc(-c8ccc(CC)cc8)c(-c8ccc(-c9ccc(-c%10ccc(-c%11ccc(-c%12ccc(CCCCCC)s%12)s%11)s%10)s9)s8)s7)cc6-c6ccc(CC)cc6)s5)s4)s3)s2)s1 [Example 6],4.6 × 10^6,1.2,1.2 × 10^−1 cm^2/Vs,
"c1csc(-c2ccc(-c3ccc(-c4ccc(-c5ccc(-c6cccs6)s5)s4)s3)s2)c1 [α-6T, α-sezithiophene, reference compound]",6.6 × 10^3,12,4.5 × 10^−2 cm^2/Vs,
CCCCCCc1ccc(-c2cc(-c3ccc(CC)cc3)c(-c3ccc(-c4ccc(-c5ccc(-c6sc(-c7cc(-c8ccc(CC)cc8)c(-c8ccc(-c9ccc(-c%10ccc(-c%11sc(-c%12ccc(CCCCCC)s%12)cc%11-c%11ccc(CC)cc%11)s%10)s9)s8)s7)cc6-c6ccc(CC)cc6)s5)s4)s3)s2)s1 [Example 7],6.1 × 10^3,9,5.7 × 10^−2 cm^2/Vs,
CCCCCCc1ccc(-c2ccc(-c3ccc(-c4ccc(-c5sc(-c6cc(-c7ccc(CC)cc7)c(-c7ccc(-c8ccc(-c9ccc(-c%10ccc(CCCCCC)s%10)s9)s8)s7)s6)cc5-c5ccc(CC)cc5)s4)s3)s2)s1 [Example 3],1.2 × 10^3,0.44,1.8 × 10^−2 cm^2/Vs,
CCCCCCc1ccc(-c2ccc(-c3ccc(-c4sc(-c5cc(-c6ccc(CC)cc6)c(-c6ccc(-c7ccc(-c8ccc(CCCCCC)s8)s7)s6)s5)cc4-c4ccc(CC)cc4)s3)s2)s1 [Example 2],1.3 × 10^4,−3.4,1.8 × 10^−2 cm^2/Vs,
CCCCCCc1ccc(-c2ccc(-c3sc(-c4cc(-c5ccc(CC)cc5)c(-c5ccc(-c6ccc(CCCCCC)s6)s5)s4)cc3-c3ccc(CC)cc3)s2)s1 [Example 1],2.7 × 10^6,−0.7,7.0 × 10^−3 cm^2/Vs,2.7×10^6
